Test results taken from PubChem BioAssay (NCATS).
Inconclusive results, whose numbers are uncertain, are shown with a selection of clear calls. For some assays here: Potencies beside an inconclusive call are fits to weak or partial responses and may not hold up. Active and inactive are the calls of the source. Unless noted, calls come from the whole dose curve; as a rule, active = well fitted activation curve with a large enough effect in the repeat runs; inconclusive = weak or mixed curves; inactive = flat fitted curve, though single readings scatter.

assay: qHTS assay for small molecule agonists of the antioxidant response element (ARE) signaling pathway (AID 651741; active = well fitted activation curve with a large enough effect in the signal ratio; inconclusive = small, poorly fitted or top-dose-only effect, or effect the other way, or a change in a side signal; the % refers to the signal ratio; note: potency is the fitted concentration of half-maximal effect; for activation: % of control where 0% means no effect); settings: HepG2 ARE-bla reporter, beta-lactamase FRET ratio, 16 h; activation: at 96 µM (top of the series) unless noted
Summary of the method: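 ARE-bla HepG2 cells (beta-lactamase reporter under ARE control) were plated at 2,000 cells/well, preincubated 5 h at 37 C/5% CO2, then treated with DMSO-dissolved compounds for 16 h at 37 C; LiveBLAzer B/G FRET substrate added, fluorescence read after 2 h at room temperature.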

Structure (SMILES) | Potency
O=C(Cl)C(Cl)(Cl)Cl | inactive
c1ccc2c(c1)CCNC2 | inactive
OCCBr | inconclusive: 53.1 µM [activator, single point]

assay: qHTS assay for small molecule disruptors of the mitochondrial membrane potential - 5 hr assay (AID 651755; calls by dose curve; note: % is set by controls: 0 for no effect and ±100 for the full control effect; nearly all actives have a fitted effect of over 40% in size); settings: JC-1-type ratio dye; ratio change, negative = disruption: at 92.2 µM (top of the series)
Summary of the method: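 HepG2 cells, attached overnight at 37C, were exposed to compound or DMSO for 5 hr at 37C, 5% CO2. Mito-MPS dye was then added for 30 min, and fluorescence read at 490/535 nm (monomers) and 540/590 nm (aggregates).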

Structure (SMILES) | Potency
CC(C)OS(C)(=O)=O | inactive
CCC[N+](=O)[O-] | inactive
CC(C)C#N | inactive

assay: qHTS assay to identify small molecules that stimulate interleukin-8 (IL-8) secretion (AID 651758; active = well fitted activation curve with a large enough effect in the signal ratio; inconclusive = small, poorly fitted or top-dose-only effect, or effect the other way, or a change in a side signal; the % refers to the signal ratio; note: potency is the fitted concentration of half-maximal effect; for activation: 0% is about no effect); settings: HTRF ratio (665/615); activation: at 92.2 µM (top of the series)
Summary of the method: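 THP-1, 2000 cells/well; cpd 16 h, 37 C; add cryptate + XL665 anti-IL-8 Abs; RT 1-3 h; TR-FRET read.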

Structure (SMILES) | activation | Potency
BrCCBr | inconclusive: 15.7% | 
CC(C)OS(C)(=O)=O |  | inactive
CCC[N+](=O)[O-] | inconclusive: 15.1% | 
Nn1cnnc1 | inconclusive: -11% | 
OCC(Br)CBr (stereo unspecified) | inconclusive: 18.9% | 
O=C(O)c1cc(Cl)ccc1Cl | inconclusive: -6.37% | 
Cc1ccc(N)cc1C | inconclusive: 12.2% | 
C/C=C/c1ccc2c(c1)OCO2 | inconclusive: -4.6% | 
ClC(Cl)Cl |  | inconclusive: 84.1 µM [activator, partial curve, poor fit]
OCCCCO | inconclusive: 26.5% | 
CC(C)C#N |  | inactive
COc1ccccc1N | inconclusive: 14% | 
CC(C)OC(=O)Cc1ccccc1 | inconclusive: -20.5% | 
N#CCc1ccccc1 | inconclusive: 9.76% | 
O=C(Cl)C(Cl)(Cl)Cl | inconclusive: -24% | 
c1ccc2c(c1)CCNC2 | inconclusive: -20.1% | 
OCCBr | inconclusive: 7.14% | 

assay: qHTS assay for small molecule agonists of the antioxidant response element (ARE) signaling pathway measured by Nrf2-dependant transcriptional activity (AID 720636); settings: ARE-luc HepG2, Nrf2 luciferase reporter, 16 h; series mostly up to 92.4 µM; note: potency is the fitted concentration of half-maximal effect;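 for activation: HepG2 cells with an ARE-driven luciferase reporter; % of control where 0% means no effect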
Summary of the method: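 Nrf2-dependent transcription is measured in ARE-luc HepG2 cells: compound is applied for 16 hr at 37 C after a 6 hr attachment period, and luciferase activity is quantified by luminescence using ONE-Glo.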

Structure (SMILES) | Potency
CCc1cccc(C)c1N(C(=O)CCl)C(C)COC (stereo unspecified) | inconclusive: 38.6 µM [activator, partial curve, poor fit]
COP(=S)(OC)Oc1nc(Cl)c(Cl)cc1Cl | inactive
CCS(=O)(=O)c1cccnc1S(=O)(=O)NC(=O)Nc1nc(OC)cc(OC)n1 | inconclusive: 48.6 µM [activator, partial curve, poor fit]
